Results on four molecules are retold here after paper PMC5823669, “Multi-chaperone function modulation and association with cytoskeletal proteins are key features of the function of AIP in the pituitary gland” (Oncotarget, 2018).

Chains of the proteins cited; added tags and fusions are not shown. Residues count along the entry.
UniProt P48721, residues 47-679: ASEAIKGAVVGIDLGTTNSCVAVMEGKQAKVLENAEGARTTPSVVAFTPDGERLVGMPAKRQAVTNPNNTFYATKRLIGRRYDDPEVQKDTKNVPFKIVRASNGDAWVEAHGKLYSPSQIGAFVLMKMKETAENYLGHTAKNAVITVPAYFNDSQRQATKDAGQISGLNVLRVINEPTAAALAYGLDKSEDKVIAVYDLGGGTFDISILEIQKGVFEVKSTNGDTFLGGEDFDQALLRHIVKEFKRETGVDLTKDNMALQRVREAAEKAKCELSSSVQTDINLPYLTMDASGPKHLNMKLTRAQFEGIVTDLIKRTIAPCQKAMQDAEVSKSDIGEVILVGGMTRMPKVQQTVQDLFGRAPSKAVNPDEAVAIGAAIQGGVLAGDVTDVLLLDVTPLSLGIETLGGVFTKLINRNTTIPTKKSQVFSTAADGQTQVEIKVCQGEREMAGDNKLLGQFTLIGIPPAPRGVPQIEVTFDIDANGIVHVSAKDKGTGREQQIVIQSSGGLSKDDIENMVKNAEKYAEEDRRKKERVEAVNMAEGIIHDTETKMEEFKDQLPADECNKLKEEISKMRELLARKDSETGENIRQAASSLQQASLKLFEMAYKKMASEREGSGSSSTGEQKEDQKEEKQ
UniProt P34058: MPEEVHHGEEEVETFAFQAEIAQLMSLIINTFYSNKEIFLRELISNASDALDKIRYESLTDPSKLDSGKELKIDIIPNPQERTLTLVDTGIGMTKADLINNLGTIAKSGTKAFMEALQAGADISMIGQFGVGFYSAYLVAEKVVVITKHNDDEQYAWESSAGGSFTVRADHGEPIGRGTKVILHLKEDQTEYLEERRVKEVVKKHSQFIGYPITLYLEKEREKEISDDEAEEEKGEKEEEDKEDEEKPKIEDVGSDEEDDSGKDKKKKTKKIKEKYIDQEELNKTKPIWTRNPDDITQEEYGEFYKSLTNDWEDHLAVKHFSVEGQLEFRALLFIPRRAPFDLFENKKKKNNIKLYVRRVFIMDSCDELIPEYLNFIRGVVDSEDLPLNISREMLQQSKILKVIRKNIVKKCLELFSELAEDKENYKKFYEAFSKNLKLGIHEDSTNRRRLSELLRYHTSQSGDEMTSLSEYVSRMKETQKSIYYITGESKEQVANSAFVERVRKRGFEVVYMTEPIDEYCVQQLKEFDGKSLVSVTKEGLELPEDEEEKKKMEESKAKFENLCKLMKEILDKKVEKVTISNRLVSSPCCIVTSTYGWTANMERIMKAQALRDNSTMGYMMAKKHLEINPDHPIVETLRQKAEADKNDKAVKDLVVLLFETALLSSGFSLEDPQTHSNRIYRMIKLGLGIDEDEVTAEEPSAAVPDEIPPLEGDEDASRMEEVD
UniProt P07632: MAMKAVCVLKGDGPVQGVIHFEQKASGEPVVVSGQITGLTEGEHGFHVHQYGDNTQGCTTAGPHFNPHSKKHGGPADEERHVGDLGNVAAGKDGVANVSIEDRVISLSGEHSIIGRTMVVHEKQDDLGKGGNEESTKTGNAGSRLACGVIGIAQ

These are yes or no findings as the source states them, for the method shown. In cells and extracts the contact can be indirect. Here binding means that the protein was enriched with, or labelled near, the bait; the list need not be complete. For some of these results: No binding means not detected with the bait. Tags and fused reporters may be left off the sequences shown.

What all share (assay): affinity purification with mass spectrometry; GST pull-down: 10 ug of purified GST-AIP bait (WT or variant) against 2 mg total protein of GH3 cell lysate; eluates of four experiments pooled; TMTsixplex labelling, Orbitrap MS; peptide intensities minus the GST control, variants given as fold of the WT experiment (WT = 1); only the target purified
Experiment [1] concerns the target T1, GST-tagged human AIP p.K266A (human) (UniProt O00170).
T1 sequence: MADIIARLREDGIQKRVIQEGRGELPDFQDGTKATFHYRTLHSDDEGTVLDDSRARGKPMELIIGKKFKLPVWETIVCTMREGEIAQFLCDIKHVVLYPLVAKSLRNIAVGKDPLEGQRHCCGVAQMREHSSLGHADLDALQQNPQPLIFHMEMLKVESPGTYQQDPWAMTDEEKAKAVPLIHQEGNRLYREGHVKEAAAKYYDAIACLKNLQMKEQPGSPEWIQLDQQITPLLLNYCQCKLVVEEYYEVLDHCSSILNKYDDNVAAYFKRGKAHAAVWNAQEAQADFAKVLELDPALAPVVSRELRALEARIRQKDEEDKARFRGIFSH

For experiment [2], the target named is T2, GST-tagged human AIP p.A299V (human, UniProt O00170 1-330, p.A299V).
T2 construct: AIP, human, UniProt O00170; also called GST-AIP A299V; not shown: GST, N-terminal, kept
T2 sequence (looked up): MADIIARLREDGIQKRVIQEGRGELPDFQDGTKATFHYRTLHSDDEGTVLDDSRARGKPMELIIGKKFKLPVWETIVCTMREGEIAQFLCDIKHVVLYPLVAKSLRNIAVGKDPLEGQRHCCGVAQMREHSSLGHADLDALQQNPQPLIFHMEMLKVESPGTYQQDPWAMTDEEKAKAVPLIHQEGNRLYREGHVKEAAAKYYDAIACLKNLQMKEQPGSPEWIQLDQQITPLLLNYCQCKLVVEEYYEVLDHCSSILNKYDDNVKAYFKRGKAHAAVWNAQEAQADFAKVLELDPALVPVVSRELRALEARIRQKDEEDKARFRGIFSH

For experiment [3], the target named is T3, GST-tagged human AIP p.R304* (human, UniProt O00170 1-303).
T3 construct: AIP, human, UniProt O00170; natural nonsense variant c.910C>T, p.R304*: stop codon in place of R304, truncated protein ending at residue 303; The C-terminal limit 303 follows from the printed p.R304*; also called GST-AIP R304*; not shown: GST, N-terminal, kept
T3 sequence (looked up): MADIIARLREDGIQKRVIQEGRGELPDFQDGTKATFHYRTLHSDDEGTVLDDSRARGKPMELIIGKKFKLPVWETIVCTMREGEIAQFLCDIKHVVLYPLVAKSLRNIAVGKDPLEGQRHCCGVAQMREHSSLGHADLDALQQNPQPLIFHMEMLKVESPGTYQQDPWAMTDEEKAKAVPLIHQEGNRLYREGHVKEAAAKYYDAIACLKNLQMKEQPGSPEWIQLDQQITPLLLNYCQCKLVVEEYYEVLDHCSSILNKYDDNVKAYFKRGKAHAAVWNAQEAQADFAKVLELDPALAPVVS

For experiment [4], the target named is T4, GST-tagged human wild-type AIP (aryl hydrocarbon receptor interacting protein) (human) (UniProt O00170).
T4 sequence: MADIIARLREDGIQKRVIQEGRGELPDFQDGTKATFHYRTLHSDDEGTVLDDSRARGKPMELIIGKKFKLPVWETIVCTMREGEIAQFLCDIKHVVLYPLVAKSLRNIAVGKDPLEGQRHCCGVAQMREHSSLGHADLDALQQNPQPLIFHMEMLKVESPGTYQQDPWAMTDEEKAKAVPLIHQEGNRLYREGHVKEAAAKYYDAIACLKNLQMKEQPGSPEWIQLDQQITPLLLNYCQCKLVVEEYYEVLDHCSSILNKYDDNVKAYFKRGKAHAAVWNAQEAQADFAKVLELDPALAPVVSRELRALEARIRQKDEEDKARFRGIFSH

Experiment [5] deals with T5, GST-tagged human AIP p.R304Q (human) (UniProt O00170).
T5 sequence: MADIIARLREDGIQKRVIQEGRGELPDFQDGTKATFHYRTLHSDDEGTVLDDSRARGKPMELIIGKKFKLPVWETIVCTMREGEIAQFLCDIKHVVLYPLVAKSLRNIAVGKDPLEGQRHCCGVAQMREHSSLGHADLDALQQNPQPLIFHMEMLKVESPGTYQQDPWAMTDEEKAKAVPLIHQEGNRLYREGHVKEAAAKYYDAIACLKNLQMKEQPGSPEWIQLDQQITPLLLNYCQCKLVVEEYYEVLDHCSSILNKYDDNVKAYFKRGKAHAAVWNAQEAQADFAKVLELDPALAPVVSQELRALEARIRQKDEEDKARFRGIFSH

“GRP75_RAT Stress-70 protein, mitochondrial (Hspa9) (from UniProt P48721 47-679)”: the binding entry in experiment [1], in experiment [2], in experiment [3], in experiment [4] and in experiment [5] was “binds” in each case.

Turning to “HS90B_RAT Heat shock protein HSP 90-beta (Hsp90ab1) (from UniProt P34058 1-724)”, the binding entry in experiment [1] and in experiment [4] was “binds” throughout.

Take “SODC_RAT Superoxide dismutase [Cu-Zn] (Sod1) (from UniProt P07632 1-154)”: the results for the binding entry in experiment [3], in experiment [4] and in experiment [5] were “no binding”, “binds” and “no binding”, respectively.

B1: NDKA_RAT Nucleoside diphosphate kinase A (Nme1) (natural protein, R. norvegicus (endogenous in GH3), UniProt Q05982 1-152, looked up)
chain: MANSERTFIAIKPDGVQRGLVGEIIKRFEQKGFRLVGLKFIQASEDLLKEHYIDLKDRPFFSGLVKYMHSGPVVAMVWEGLNVVKTGRVMLGETNPADSKPGTIRGDFCIQVGRNIIHGSDSVESAEKEISLWFQPEELVDYKSCAQNWIYE
notes: Nucleoside diphosphate kinase A, rat, UniProt Q05982; also called NME/NM23 nucleoside diphosphate kinase 1; source: endogenous, GH3 cell lysate
As for B1, the binding entry is reported as “no binding” in experiment [3], “binds” in experiment [4] and “no binding” in experiment [5].
